From PubChem BioAssay AID1347423 (Functional Genomics Laboratory (NCATS/FGL), 2020)
Screen size: about 52,000 sequences; about 210 (0.4%) were called active.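 The calls were made as follows: active = gene whose silencing raises cell survival under the drug, median off-target-corrected z-score across its silencing RNAs 2 or more; inactive = the rest.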 The list shows a part of the results.

Experiment: Resistance to Poly (ADP-Ribose) Polymerase inhibitor: Gene Identification via Genome-wide siRNA Screen
Conditions: mouse BRCA2 R2336H ES cells, olaparib, CellTiter-Glo viability; stronger effect = higher value
Method in brief: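 Genome-wide siRNA screen (3 siRNAs/gene, 20 nM) in mouse ES cells carrying hypomorphic BRCA2 R2336H; olaparib 500 nM added 48 h post-transfection, CellTiter-Glo viability 72 h later. Normalized to plate-median negative control; MAD z-scores, gene median, seed-adjusted.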

Row | Sequence | z-score
1 | GGAAAUGAACUCAUAGCCATT against Olfr121 | inactive: -0.444
2 | GGUGCUAGAUCCACAGAACTT against Agrp | inactive: 1.08
3 | GGUCAAUUCACUUUGUAAGTT against Meox1 | inactive: 0.979
4 | GAUGGAGAUCAAGAUAUGGTT against Obox5 | inactive: 1.12
5 | GGUUGUUCGUAGUCUUCCUTT against AI159731 | inactive: -1.43
6 | CCAACUAAUGCCAAAAGAATT against Fnta | inactive: -1.32
7 | CCAGUUUUUAGUUGUAGCCTT against Mta3 | inactive: 0.471
8 | GGAAUUUGAGGAAUUGACATT against Dck | inactive: -0.93
9 | AGAAAUGCCUCUUCAGUGATT against Olfr884 | inactive: 1.32
10 | GGACAUGAAGAUGGGAUCUTT against Pctk1 | inactive: -0.21
11 | CCGAAGUCAACUAAACUUATT against 3110002H16Rik | inactive: 0.492
12 | GGCACUAAUGAACAACUCUTT against Daam1 | inactive: 0.0389
13 | GGAAGACUCGGAGUUUCUATT against Ece2 | inactive: 1.88
14 | CCACCAAGUGGUUUAUACATT against Atf7ip | inactive: -0.91
15 | GGAUAAAUUCAAUGAGACATT against Afm | inactive: 0.546
16 | CCUUGUUGCUCUGUCGAUCTT against Grina | inactive: -0.202
17 | CCUUAUUAGUGGAUCUAAATT against 1010001D01Rik | inactive: -0.693
18 | GGAUGAAGAUGAUGGAUGGTT against C330016H24Rik | inactive: 0.585
19 | GGGUAAGAGUUACAGAAUATT against Serpinb8 | inactive: -0.46
20 | CGCAACCUGUCACAUAAUATT against Bmpr2 | inactive: -0.839
21 | GGAAUGGUUUGAAGAACUUTT against Tlr6 | inactive: -0.38
22 | CCAGACAUUUGAUAGCCAUTT against 5730508B09Rik | inactive: 1.24

Single values from the list:
CCGAAGUCAACUAAACUUATT against 3110002H16Rik | z-score: inactive: 0.492
GGAAAUGAACUCAUAGCCATT against Olfr121 | z-score: inactive: -0.444
CCACCAAGUGGUUUAUACATT against Atf7ip | z-score: inactive: -0.91
CGCAACCUGUCACAUAAUATT against Bmpr2 | z-score: inactive: -0.839

More records:

Row | Sequence | z-score
23 | GCGAGAUAGGCUUUACUCUTT against Kdr | inactive: -0.535
24 | GGGCACUUCUGUCUUUGUCTT against P2rx3 | inactive: 1.94
25 | GGAAAUGCCUUCAGAAAUUTT against Slc9a3r1 | inactive: 0.863
26 | GGACUUAAGUACAAAGAUCTT against Sap18 | inactive: 2.7
27 | GGUGAACAAGCUGUCCUCATT against Fgl2 | inactive: 2.97
28 | GGUAUUAGUAUGUAUCUUCTT against Olfr135 | inactive: -0.138
29 | GGAGAUCAUGAAGGAGCUATT against Lcn7 | inactive: -2.15
30 | GGCCUUUUUCUUUCUUUUCTT against Olfr212 | inactive: 0.911
31 | GCACUGAGCACAAGAAGAGTT against MGC54654 | inactive: -2.13
32 | GGCAGCCUGAACAUCAAUGTT against S100a13 | inactive: 1.15
33 | CGACUUGAACAUGGUAAAATT against Eif5b | inactive: 1.5
34 | GGAGACAGAAAAUCAAGGCTT against Taf7 | inactive: 0.536
35 | CCCAUGACCAAUGGGUGAATT against BC042549 | inactive: 0.952
36 | GGAUGUGGCUGCUUUGAAGTT against Wbscr27 | inactive: 0.123
37 | CCAUGUUUUUAUAGCUCUUTT against BC023957 | inactive: 0.745
38 | GGCAAGUGCAAUUUAUAAATT against Nfib | inactive: -0.656
39 | GGAUCAAAGCUCCGGUAUATT against Farslb | inactive: -2.22
40 | GGAAAAAGUCAGAGAAAAATT against Sstr2 | inactive: 0.162
41 | GGGAAUGGAAGAAUAUUCUTT against Dppa2 | inactive: 3.23
42 | GGGAUUUUUUGAACUGAUATT against Nedd4 | inactive: -0.431
43 | GCCGUUACUGAGCUGAAAUTT against Allc | inactive: 2.02
44 | GGGCAUUGUUCACAAGGACTT against Stk11 | inactive: 2.23

Row | Sequence | z-score
45 | GGAUGUUGAAGGUUUUGAATT against Fmr1nb | inactive: -0.69
46 | GGAGAUCCAUUAGUGAGACTT against Mdm2 | inactive: -1.32
47 | GGAAAAGCCUACUUCAAAATT against BC020077 | inactive: 1.89
48 | CGUAUUCAACCUUCAUAGATT against 1700040L02Rik | inactive: 0.624
49 | GGAACUUAAGACUUUCAAGTT against Abcf2 | inactive: -0.611
50 | GGAGUGUGGCAUUCAUCCUTT against Olfr667 | inactive: -0.961
51 | GCGUGUGCGUGAUAAGUAUTT against Azi1 | inactive: 0.0507
52 | GGAGAGAGGAAUUCAACAGTT against Zfp75 | inactive: -0.0317
53 | GGGCAAGUUUUUUUUUCUUTT against Sf3a2 | inactive: 0.943
54 | GGUGUUUUCUCCAGUUAAGTT against Hfe | inactive: -0.34
55 | CCCAUAUGUGGUUUGUAAUTT against Cryaa | inactive: 0.524
56 | GCUGACAACCGAUGACAAUTT against Gja8 | inactive: 1.35
57 | CGGGUCACAAGGCUUCAAATT against D4Ertd22e | inactive: -1.42
58 | CCAAAGAUGUUAUUGGACCTT against Olfr1152 | inactive: -0.292
59 | CCAGAGAAGUGGCAGCACUTT against Olfr108 | inactive: 0.334
60 | GCUUUACUAUGUGAGAAAUTT against Ryk | inactive: 0.134
61 | GGUCUCCAUGGAUUUAUGCTT against Phf7 | inactive: -0.676
62 | CCAACAAGUGAGCUGCAGATT against Olfr724 | inactive: -1.18
63 | CGUGUGUGUCAUGUUACGGTT against Dusp2 | inactive: -1.31
64 | GGUCUUCAAGUCAAUCUUGTT against Chst10 | inactive: 0.402
65 | GGAAAAUUUGCCUGGACCGTT against Cxcl4 | inactive: 0.842
66 | GGACCAUUCUGCUAGAUGCTT against Tnfrsf1a | inactive: -0.208

Random excerpt: 2 entries already listed
Row | Sequence | z-score
48 | CGUAUUCAACCUUCAUAGATT against 1700040L02Rik | inactive: 0.624
53 | GGGCAAGUUUUUUUUUCUUTT against Sf3a2 | inactive: 0.943

(continued)

Row | Sequence | z-score
67 | GGUCUACAGCUACCUGAAUTT against Npc2 | inactive: -1.63
68 | GGGUCUGUUCGAUUCAUUATT against Mdfi | inactive: 0.977
69 | CUUCCGAUUUCCAAAUCCUTT against 1700020N01Rik | inactive: -0.674
70 | CCACUGUUGUGCAAUGCUUTT against Snx25 | inactive: -0.142
71 | CCCAAAAGCAAACUUGCUGTT against Hp1bp3 | inactive: -0.244
72 | GGAGCUCAAGGAAUAGUGUTT against Mapk8 | inactive: -0.237
73 | GAUCAAAGCGGCGUACUACTT against Wbscr18 | inactive: -0.841
74 | GGUCUGAUUCACCAUAAUUTT against Sspn | inactive: -0.914
75 | GGACAAAUGGUAUUGUAGUTT against 6330578E17Rik | inactive: 0.705
76 | GCCAGACAAAGGUACACUATT against Hmox2 | inactive: -0.181
77 | GGAAGAGUGACCUUAAGUCTT against 6030405P05Rik | inactive: 0.112
78 | GCUCCUGGGAUACGUAUUATT against Bat5 | inactive: 0.113
79 | GGGUGGUAGAUUUAUACUATT against Crygc | inactive: 1.88
80 | GGAAAUGACCCAUACUGUUTT against Tia1 | inactive: 0.438
81 | GGAGGUGGAAUGAGGAAACTT against Cck | inactive: 0.322
82 | GGUAAAAAGUGCCAUUAGATT against Olfr1188 | inactive: 0.148
83 | GCAACCGAAAGAUAAAGCCTT against BC005752 | inactive: 0.172
84 | CCAGGUCGAACUUCUGUGCTT against Slc39a8 | inactive: -1.22
85 | CCAAAGUCUGACACGUUUGTT against Soat2 | inactive: 0.0407
86 | GUACCUGAAGCCAGUGUUGTT against Hrmt1l3 | inactive: 1.77
87 | GCCAAUUGGCCUUUGCUAUTT against Olfr1289 | inactive: 0.217
88 | CCAGGCACUUAAGGAAAUUTT against Bloc1s1 | inactive: -1.23

Row | Sequence | z-score
89 | GGCGGGCAUUUAACAGUGUTT against Dnajc2 | inactive: -0.219
90 | GGAAGUAGGACUAGCCAUCTT against Akr1c6 | inactive: 1.85
91 | CCUCCUCAGUAUCCGUAUATT against Cpsf5 | inactive: -1.09
92 | CCACAGAGUUCCUAUACAATT against Pfkl | inactive: -0.188
93 | GGAGAAUUACGGUGCCAACTT against Ncoa3 | inactive: 0.354
94 | GCAGGUGAUUGUGAUUGAATT against Ddx46 | inactive: -1.79
95 | GGCUGAAGUUCAAGGAUUGTT against V1rb2 | inactive: 1.84
96 | GGACUUUUCUCUCCACCACTT against BC014805 | inactive: 1.03
97 | GGAUAAUCAUUCUUGUCACTT against Ptgfr | inactive: -0.205
98 | GGACUAUAGAUCCUAAGUCTT against Kcnab2 | inactive: -1.35
99 | GCUACAGGAGUCGACUUCATT against Lef1 | inactive: -1.71
100 | GGUACAUAUGUGAUGACCGTT against Cdh4 | inactive: 0.312
101 | GGAGCUUAAGCAGUUCACATT against Traf5 | inactive: -0.672
102 | CCAUGCCGCUUCUUAGUCATT against Oaz1 | inactive: 1.14
103 | CCUGAUUGAUUUUGUUCCCTT against V1rd11 | inactive: 0.832
104 | CGCAUUAAGGGUUAAAGAATT against Plekhf1 | inactive: -0.354
105 | CCUAUGAUUCAGCAAUACUTT against Col17a1 | inactive: 1.91
106 | CCCAGUGCAUCGAAAAGCUTT against Kif21a | inactive: -1.97
